{"source": "paper PMC7819943", "about": "“Rice protein-binding microarrays: a tool to detect cis-acting elements near promoter regions in rice”", "note": "The other results are listed elsewhere or left out.", "data": [{"biological_target": "T1, OsSMF1 (Oryza sativa, UniProt Q6ZLB0 1-436)", "T1 sequence": "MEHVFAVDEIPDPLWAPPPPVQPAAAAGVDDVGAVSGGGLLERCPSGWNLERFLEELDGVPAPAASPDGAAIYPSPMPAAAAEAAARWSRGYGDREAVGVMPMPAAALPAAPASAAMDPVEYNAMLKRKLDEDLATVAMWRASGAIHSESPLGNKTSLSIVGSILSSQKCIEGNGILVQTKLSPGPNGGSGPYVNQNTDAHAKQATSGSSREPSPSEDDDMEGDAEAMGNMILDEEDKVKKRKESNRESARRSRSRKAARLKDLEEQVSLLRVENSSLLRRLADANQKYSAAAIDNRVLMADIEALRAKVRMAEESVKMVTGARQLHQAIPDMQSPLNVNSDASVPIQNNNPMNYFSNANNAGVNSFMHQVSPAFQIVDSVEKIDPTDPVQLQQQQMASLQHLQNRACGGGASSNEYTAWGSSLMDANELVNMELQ", "experiment": "protein-binding microarray (RPBM); PBS, 2% BSA, 51.3 ng/ul salmon testes DNA, 50 uM zinc acetate, 200 nM TF, 25 C, 1 h; high values mean tight binding", "conditions": "protein: recombinant; tags: N-terminal polyhistidine and DsRed monomer fusion (pET32a); chain copies: 2; label: CyDye5-dUTP incorporated in the synthesized complementary strand; 3' TTTTT single-stranded linker to array surface; dsDNA, one strand shown", "how_it_was_run": "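Using Ni–NTA, transcription factors fused N-terminally to polyhistidine and DsRed were purified after expression in E. coli BL21-CodonPlus. These were incubated at 200 nM with a blocked, double-stranded custom Agilent array for 1 h at 25 °C in a buffer containing 50 µM zinc acetate, and the array was washed. The binding signal is per-feature fluorescence intensity (arbitrary units) on an Axon 4000B scanner.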", "values": [{"sequence": "TACCGATCCCGCCGGCTGCACGACGCCGACCCGACACACCCGGAGTCACCTAGTGCAG", "binding signal": "18500 fluorescence intensity (a.u.)"}, {"sequence": "GTAGGTGGATGGTGTGGCCTGCACTCGTTCGGCTTCTACTCGGAGTCACCTAGTGCAG", "binding signal": "3870 fluorescence intensity (a.u.)"}, {"sequence": "AAGAAGCTGTGCCACGTGTTTCCTCCTTCCCCTCCTCGATCGGAGTCACCTAGTGCAG", "binding signal": "18900 fluorescence intensity (a.u.)"}, {"sequence": "CAGTGTACGAGCTGGTGTGTGTTTCTCTCCGTTTCGTTTCCGGAGTCACCTAGTGCAG", "binding signal": "4080 fluorescence intensity (a.u.)"}, {"sequence": "GCGAGCAAATTATTCGCCACGCTTGCGGCACGACTGTTGCCGGAGTCACCTAGTGCAG", "binding signal": "3640 fluorescence intensity (a.u.)"}, {"sequence": "TTGGTGTTGTTACATCAGCATCCATCAGTTTTGTTACCCCCGGAGTCACCTAGTGCAG", "binding signal": "6030 fluorescence intensity (a.u.)"}, {"sequence": "ACAGCCAACGTGTATCATCAGTAGATTCCACCCCAAGATCCGGAGTCACCTAGTGCAG", "binding signal": "4540 fluorescence intensity (a.u.)"}, {"sequence": "TCATGATGCCACGGCACAATATTTTGGTGTGATCCTACACCGGAGTCACCTAGTGCAG", "binding signal": "3260 fluorescence intensity (a.u.)"}, {"sequence": "GATATCACACTATCTATGACAACGAATTTGGACAGTGGGTCGGAGTCACCTAGTGCAG", "binding signal": "3500 fluorescence intensity (a.u.)"}, {"sequence": "ATTTTGGCTGACTAGACTGCCACGTATGCGTCCACGTAGGCGGAGTCACCTAGTGCAG", "binding signal": "29500 fluorescence intensity (a.u.)"}, {"sequence": "ATGGGCAATACCAATAGCTAAGCCAAGCCAAATTTCTTCTCGGAGTCACCTAGTGCAG", "binding signal": "26200 fluorescence intensity (a.u.)"}, {"sequence": "GCGTTTAAGGATTAGGAATTATAAGCTGATGCGTACACAGCGGAGTCACCTAGTGCAG", "binding signal": "3650 fluorescence intensity (a.u.)"}, {"sequence": "GCTACTATCTATACTATTATCAGCGTCACGTGAGCTCGCTCGGAGTCACCTAGTGCAG", "binding signal": "4040 fluorescence intensity (a.u.)"}, {"sequence": "AGATGGATCAAACGGGTTGGTTGTCGTGTCACCTCCATTCCGGAGTCACCTAGTGCAG", "binding signal": "7340 fluorescence intensity (a.u.)"}, {"sequence": "TCCGTATTTTAATGTATGACGCTGTTGACTTTCGACCTACCGGAGTCACCTAGTGCAG", "binding signal": "7860 fluorescence intensity (a.u.)"}, {"sequence": "GTCAGTGGGTCCCATAATATATTTTGTGTGTGAATGACAGCGGAGTCACCTAGTGCAG", "binding signal": "3400 fluorescence intensity (a.u.)"}, {"sequence": "ACTAGGATGTGTCACGTTTAGTTTTAGTTTGTATTTTATGCGGAGTCACCTAGTGCAG", "binding signal": "5970 fluorescence intensity (a.u.)"}, {"sequence": "TGACCGGCGCAGCTCGCGCCACGTCACCCGCACGCGCCGCCGGAGTCACCTAGTGCAG", "binding signal": "8600 fluorescence intensity (a.u.)"}, {"sequence": "TAAAACTAGTCAACACTGTCGTGTAAACGTCACGTAAGCGCGGAGTCACCTAGTGCAG", "binding signal": "6840 fluorescence intensity (a.u.)"}, {"sequence": "TTTATATACGTATTCTTAACGTTATAAACGTACTGACTGACGGAGTCACCTAGTGCAG", "binding signal": "3410 fluorescence intensity (a.u.)"}, {"sequence": "CACCTGCAGCTGCCACGTCAGAGCCACGTCGGATTCCAACCGGAGTCACCTAGTGCAG", "binding signal": "40800 fluorescence intensity (a.u.)"}, {"sequence": "TCTCTTGCTAACTGTGCTTAGTCAATATTGGGTGCTGAGTCGGAGTCACCTAGTGCAG", "binding signal": "3650 fluorescence intensity (a.u.)"}, {"sequence": "ACATATATGCTATTATATGAGAGAGAATATAATGATGCTACGGAGTCACCTAGTGCAG", "binding signal": "34700 fluorescence intensity (a.u.)"}, {"sequence": "TGAAGCAGGCAAAGCAGGCAGGAAGGGATAAGAACACAATCGGAGTCACCTAGTGCAG", "binding signal": "24400 fluorescence intensity (a.u.)"}, {"sequence": "CCTTCATCCCATAATATAAAAGATTTTAGAGGGATATGACCGGAGTCACCTAGTGCAG", "binding signal": "33000 fluorescence intensity (a.u.)"}, {"sequence": "CCTTAGGCGTTCTTGCCGGTGCCGTTCGTTCCTGGGGCCGCGGAGTCACCTAGTGCAG", "binding signal": "23500 fluorescence intensity (a.u.)"}, {"sequence": "ACCAGCAGCCAGTCAGCCTCCTTGACCCACACACACTCTCCGGAGTCACCTAGTGCAG", "binding signal": "5530 fluorescence intensity (a.u.)"}, {"sequence": "AGAGTAGATTGTACATTGTTTTGCTCACCTTAGTTTAGTACGGAGTCACCTAGTGCAG", "binding signal": "3860 fluorescence intensity (a.u.)"}, {"sequence": "GTGTCTGACAAGGCCGGGCCCACTGTCATTCACTCAGTCCCGGAGTCACCTAGTGCAG", "binding signal": "3880 fluorescence intensity (a.u.)"}, {"sequence": "ATGCGTACTCATGCCGTTGTCTTCTCGCAGTTGCGCTGGTCGGAGTCACCTAGTGCAG", "binding signal": "3860 fluorescence intensity (a.u.)"}, {"sequence": "TCTCTTCGGTGGTGGAATTGGTTTCATCTGAGCTGCTGCTCGGAGTCACCTAGTGCAG", "binding signal": "3470 fluorescence intensity (a.u.)"}, {"sequence": "GTATTTATTATCTTCTCTAATGAGGTGTATTGCTGTGGACCGGAGTCACCTAGTGCAG", "binding signal": "3250 fluorescence intensity (a.u.)"}, {"sequence": "ATAACTAAGATGTGCCACATCTCCTTCTAAGTTAAGTTTTCGGAGTCACCTAGTGCAG", "binding signal": "3300 fluorescence intensity (a.u.)"}, {"sequence": "GACAGTAGTGTCCCTGGTTTTGGCTGACGTGGCTCCTACACGGAGTCACCTAGTGCAG", "binding signal": "33200 fluorescence intensity (a.u.)"}, {"sequence": "GCGCTTCCGGCCCAGGAGCCTCAAATCACACCTCAGACTCCGGAGTCACCTAGTGCAG", "binding signal": "36900 fluorescence intensity (a.u.)"}, {"sequence": "GTTTCATCCGATGAGTTGTCTGGACGTTGCATCGGCTTACCGGAGTCACCTAGTGCAG", "binding signal": "3290 fluorescence intensity (a.u.)"}, {"sequence": "CAGGTTCGCCTCGAACGTGCTGTTGCCCACGTACGTGTTGCGGAGTCACCTAGTGCAG", "binding signal": "4400 fluorescence intensity (a.u.)"}, {"sequence": "CGCGTGCACACGCACACGTTGGCCGGTTGATCTCACCAAGCGGAGTCACCTAGTGCAG", "binding signal": "4080 fluorescence intensity (a.u.)"}, {"sequence": "CGCCACCAGGCTCCTCAGGCTCAACCTCGCCTACAACAACCGGAGTCACCTAGTGCAG", "binding signal": "30900 fluorescence intensity (a.u.)"}, {"sequence": "GTCTGGTCTGCGAATCGCCGGTCACCAGTGAATGGGCATGCGGAGTCACCTAGTGCAG", "binding signal": "3160 fluorescence intensity (a.u.)"}, {"sequence": "TAGATCGAGATGGCTGTCATCATCGGAGCCAAACGATCGACGGAGTCACCTAGTGCAG", "binding signal": "3260 fluorescence intensity (a.u.)"}, {"sequence": "GCGGGAGGAGGAGGGGAGGGAATCGCAGCTGCTGCGGCGGCGGAGTCACCTAGTGCAG", "binding signal": "4990 fluorescence intensity (a.u.)"}]}]}
